Paper PMC10618255, “Cryo-EM structure of human O-GlcNAcylation enzyme pair OGT-OGA complex” (Nature Communications, 2023)

By UniProt entry, the sequences of proteins in these tests, tags left out. Where a name states a change or a piece, a line headed by the entry shows the natural chain unless it says otherwise.
UniProt O15294: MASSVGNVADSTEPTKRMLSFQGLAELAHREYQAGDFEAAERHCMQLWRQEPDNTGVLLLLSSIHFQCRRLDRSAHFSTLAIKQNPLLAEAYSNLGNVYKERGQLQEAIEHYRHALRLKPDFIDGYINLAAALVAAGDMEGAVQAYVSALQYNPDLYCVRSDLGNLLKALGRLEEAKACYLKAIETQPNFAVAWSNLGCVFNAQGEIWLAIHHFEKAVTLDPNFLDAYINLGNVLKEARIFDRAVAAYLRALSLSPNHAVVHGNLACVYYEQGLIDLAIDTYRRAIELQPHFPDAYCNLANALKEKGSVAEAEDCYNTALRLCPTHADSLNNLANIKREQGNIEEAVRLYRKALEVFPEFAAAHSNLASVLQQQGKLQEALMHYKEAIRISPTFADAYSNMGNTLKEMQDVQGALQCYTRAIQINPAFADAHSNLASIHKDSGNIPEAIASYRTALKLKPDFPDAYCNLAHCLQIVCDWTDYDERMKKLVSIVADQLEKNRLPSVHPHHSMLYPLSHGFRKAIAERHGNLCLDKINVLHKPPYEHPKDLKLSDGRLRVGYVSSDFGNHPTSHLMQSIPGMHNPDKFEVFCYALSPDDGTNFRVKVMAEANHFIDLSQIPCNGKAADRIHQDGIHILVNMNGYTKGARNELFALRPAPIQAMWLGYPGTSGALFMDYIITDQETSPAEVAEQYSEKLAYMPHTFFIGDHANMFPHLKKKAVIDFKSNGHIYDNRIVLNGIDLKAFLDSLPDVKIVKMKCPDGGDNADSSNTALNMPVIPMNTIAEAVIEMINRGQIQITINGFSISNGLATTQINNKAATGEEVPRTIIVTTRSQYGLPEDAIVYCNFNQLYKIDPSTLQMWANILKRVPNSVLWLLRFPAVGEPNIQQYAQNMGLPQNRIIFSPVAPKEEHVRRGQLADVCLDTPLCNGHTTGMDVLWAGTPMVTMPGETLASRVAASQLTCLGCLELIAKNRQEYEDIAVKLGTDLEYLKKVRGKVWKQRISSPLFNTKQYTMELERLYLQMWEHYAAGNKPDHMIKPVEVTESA

target: T1, GST-OGA (residues 371-440) (human) (UniProt O60502); assay: pull-down; GST pull-down: GST-OGA bait on Glutathione Sepharose 4B, His6-tagged OGT or mutants as prey; all proteins 1 mg/ml; 25 mM Tris pH 8.0, 150 mM NaCl, 2 mM DTT, 0.05% NP40; 2 h at 4 °C; SDS-PAGE with Coomassie staining; both purified
T1 sequence: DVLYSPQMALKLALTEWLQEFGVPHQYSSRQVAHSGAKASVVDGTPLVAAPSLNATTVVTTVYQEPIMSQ

binding	Substance
binds	human OGT mutated at N434 (TPR13), His6 (from UniProt O15294) (enzyme)
binds	human OGT mutated at N332 (TPR10), His6 (from UniProt O15294) (enzyme)
binds	human OGT mutated at N366 (TPR11), His6 (from UniProt O15294) (enzyme)

Results are given in words; binding and its absence hold for the method and conditions named. Binding calls can cover weak binding; strength is not graded here. Tags and fused reporters may be left off the sequences shown.
